# Laboratory results: PubChem BioAssay AID504764 (Drosophila RNAi Screening Center, 2011)
# Aim: 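Genes whose knock-down alters Notch-dependent transcription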 (primary screen)
# Cell system: Drosophila Kc167 cells
# Reagent: long dsRNA against Drosophila genes
# Time to read-out: about 5 days (4 days dsRNA, then 24 h after transfection)
# Treatment: transfection of constitutively active membrane-tethered Notch lacking the extracellular domain, read 24 h later
# Measured: 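Light from a Notch-responsive E(spl)m3 luciferase reporter under active Notch, with control-promoter and no-Notch reporter wells to normalise; raw counts from paired wells a and b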
# Reading the numbers: induced reporter light, run 1, well a and induced reporter light, run 1, well b: higher = more light from the Notch target reporter with active Notch; control promoter light, run 1, well a and control promoter light, run 1, well b: higher = more light from the viral control promoter (cell number, transfection, viability); uninduced reporter light, run 1, well a: higher = more light from the Notch target reporter without active Notch
# Active means: 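Hit if the duplicate-averaged log2 ratio of induced to control-promoter light gives a plate-wise z beyond ±2, or induced to uninduced beyond ±1.8; weak-control or discordant-duplicate wells dropped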
# Meaning of the calls: active = modifier hit (raised or lowered Notch signal); inactive = not a hit
# The deposit covers about 22,000 reagents; below is an unselected part of those with a known target gene and a result. In the full data, 403 (1.9%) got an active call. 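Unnormalised raw counts per well; ratio z-scores behind the hit calls and whether each hit raises or lowers signal are not deposited.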 The numbers tell different reagents against one gene apart. A plus sign joins genes that one reagent is predicted to hit. No sequences are given here. Not stated in the record: the amount of reagent.
Gene,reagent no.,"induced reporter light, run 1, well a","induced reporter light, run 1, well b","control promoter light, run 1, well a","control promoter light, run 1, well b","uninduced reporter light, run 1, well a",call
CG1750,1,1.93e5,1.98e5,2.72e5,2.54e5,10365,inactive
CG1850,1,2.00e5,1.59e5,2.25e5,1.95e5,13725,inactive
Spred (Sprouty-related protein with EVH-1 domain),1,81620,1.01e5,88560,88635,6965,inactive
"SdhB (Succinate dehydrogenase, subunit B (iron-sulfur))",1,1.61e5,1.93e5,1.43e5,1.43e5,13705,inactive
"SdhB (Succinate dehydrogenase, subunit B (iron-sulfur))",2,,,,,,inactive
pch2 (pachytene checkpoint 2),1,72535,82065,81360,65370,5995,inactive
CG15233,1,1.58e5,1.63e5,1.91e5,1.61e5,13900,inactive
CG1213,1,78910,96205,80550,60400,6320,inactive
CG13950,1,1.36e5,1.14e5,1.32e5,69915,11800,inactive
CG14864,1,2.31e5,2.02e5,2.03e5,1.80e5,20028,inactive
Ptx1,1,1.14e5,1.43e5,1.30e5,1.24e5,8305,inactive
Mur29B (Mucin related 29B),1,1.16e5,1.07e5,1.50e5,1.19e5,7515,inactive
Mur29B (Mucin related 29B),2,1.67e5,1.85e5,81030,1.11e5,22005,inactive
CecA2 (Cecropin A2),1,1.22e5,1.49e5,1.53e5,1.38e5,9805,inactive
rdhB (retinol dehydrogenase B),1,1.68e5,2.25e5,1.91e5,2.72e5,18275,inactive
Eaat1 (Excitatory amino acid transporter 1),1,1.70e5,1.97e5,88095,1.11e5,25260,inactive
eIF3a (eukaryotic translation initiation factor 3 subunit a),1,5910,5335,6140,4775,520,inactive
COX7C (Cytochrome c oxidase subunit 7C),1,1.87e5,1.64e5,1.62e5,1.76e5,12010,inactive
"Pka-R2 (Protein kinase, cAMP-dependent, regulatory subunit type 2)",1,1.92e5,2.28e5,2.32e5,2.45e5,19355,inactive
CG2519,1,1.33e5,1.19e5,1.15e5,91735,10935,inactive
CG14778,1,1.34e5,1.07e5,1.86e5,1.88e5,8095,inactive
CG6435,1,1.51e5,97155,1.64e5,1.33e5,10765,inactive
Polr2B (RNA polymerase II subunit B),1,23825,19830,17305,17160,3035,inactive
Zwilch,1,1.54e5,1.40e5,1.99e5,2.04e5,12580,inactive
CG2247,1,2.20e5,1.97e5,2.19e5,2.35e5,13030,inactive
CG2113,1,1.42e5,1.22e5,2.23e5,1.53e5,12910,inactive
fz (frizzled),1,2.09e5,1.84e5,2.83e5,2.52e5,8895,inactive
Mic26-27 (MICOS subunit 26/27),1,1.97e5,1.96e5,2.73e5,2.33e5,19925,inactive
CG10466,1,1.29e5,74980,89795,69605,5585,inactive
dtn (detonator),1,1.19e5,1.25e5,2.38e5,3.13e5,9755,inactive
CG14712,1,27330,34335,31720,30490,4178,inactive
msl-3 (male-specific lethal 3),1,2.15e5,2.07e5,2.32e5,2.65e5,10520,inactive
CG12128,1,1.51e5,1.24e5,1.11e5,1.09e5,11675,inactive
CG14252,1,1.18e5,1.28e5,1.83e5,1.55e5,9760,inactive
Pngl (PNGase-like),1,2.53e5,2.07e5,2.20e5,1.97e5,17515,inactive
CG15820,1,71530,71000,95200,1.01e5,6085,inactive
CG13310,1,1.02e5,79120,65760,66990,4320,active
TpnC4 (Troponin C isoform 4),1,2.61e5,2.31e5,2.78e5,2.89e5,20830,inactive
bou (boudin),1,1.23e5,1.38e5,2.53e5,2.79e5,10845,inactive
alpha-Spec (alpha Spectrin),1,1.04e5,91135,1.82e5,2.09e5,8445,inactive
CG13251,1,1.71e5,1.28e5,1.26e5,90255,9285,inactive
scu (scully),1,80885,79980,73190,84365,9475,inactive
Obp56i (Odorant-binding protein 56i),1,1.67e5,1.66e5,3.00e5,3.20e5,13275,inactive
Hsp68 (Heat shock protein 68),1,2.16e5,2.08e5,2.18e5,2.54e5,16070,inactive
Elp2 (Elongator complex protein 2),1,1.76e5,1.65e5,1.98e5,1.77e5,14620,inactive
CG13168,1,94045,1.22e5,1.26e5,1.14e5,9210,inactive
CG31041,1,1.47e5,1.38e5,1.37e5,1.66e5,12970,inactive
Tk (Tachykinin),1,72085,78060,83045,47930,6070,inactive
sls (sallimus),1,50695,41665,85815,93955,3755,inactive
sls (sallimus),2,1.29e5,1.26e5,1.62e5,1.87e5,10475,inactive
sls (sallimus),3,1.35e5,1.58e5,2.58e5,2.02e5,11130,inactive
Mlc1 (Myosin alkali light chain 1),1,1.07e5,83535,2.03e5,1.54e5,9970,inactive
"SmydA-4 (SET and MYND domain containing, arthropod-specific, member 4)",1,1.41e5,1.30e5,2.68e5,2.15e5,9600,inactive
Hsp70Bb + Hsp70Ba + Hsp70Bc + 1 more,1,61605,57610,83190,89230,7185,inactive
Hsp70Bb + Hsp70Ba + Hsp70Bc + 1 more,2,34735,37845,51160,52545,3715,inactive
CG3735,1,1.82e5,2.00e5,1.58e5,1.83e5,13790,inactive
sel (seele),1,2.15e5,1.35e5,2.01e5,1.73e5,13560,inactive
CG18545,1,81450,88895,75735,64785,5680,inactive
RpS3A (Ribosomal protein S3A),1,3455,3032,5395,6620,245,inactive
CG11309,1,1.27e5,1.26e5,89785,90180,9920,inactive
CG13581,1,1.63e5,1.54e5,1.37e5,1.58e5,11935,inactive
mRpL10 (mitochondrial ribosomal protein L10),1,1.18e5,1.80e5,2.19e5,2.45e5,9535,active
Zpr1,1,2.49e5,2.24e5,2.49e5,2.49e5,17410,inactive
CG4291,1,1.98e5,1.92e5,2.10e5,2.45e5,19510,inactive

Individual results from the entries so far.
For “uninduced reporter light, run 1, well a”, CG13168 is entered as 9210
Mlc1 (Myosin alkali light chain 1), call → inactive
For “uninduced reporter light, run 1, well a”, Mur29B (Mucin related 29B) #1 reads 7515
Under “call”, CG15820 has inactive
Under “call”, Mic26-27 (MICOS subunit 26/27) reads inactive
msl-3 (male-specific lethal 3), induced reporter light, run 1, well b = 2.07e5
